Publication PMC3517560
No constants are given. Whether binding was seen depends on the method and setting. Binding seen in cells or lysates may run through a third protein. Some binding calls cover weakened binding; strength is not graded here.

Chains of the proteins cited; added tags and fusions are not shown.
UniProt Q9JI91: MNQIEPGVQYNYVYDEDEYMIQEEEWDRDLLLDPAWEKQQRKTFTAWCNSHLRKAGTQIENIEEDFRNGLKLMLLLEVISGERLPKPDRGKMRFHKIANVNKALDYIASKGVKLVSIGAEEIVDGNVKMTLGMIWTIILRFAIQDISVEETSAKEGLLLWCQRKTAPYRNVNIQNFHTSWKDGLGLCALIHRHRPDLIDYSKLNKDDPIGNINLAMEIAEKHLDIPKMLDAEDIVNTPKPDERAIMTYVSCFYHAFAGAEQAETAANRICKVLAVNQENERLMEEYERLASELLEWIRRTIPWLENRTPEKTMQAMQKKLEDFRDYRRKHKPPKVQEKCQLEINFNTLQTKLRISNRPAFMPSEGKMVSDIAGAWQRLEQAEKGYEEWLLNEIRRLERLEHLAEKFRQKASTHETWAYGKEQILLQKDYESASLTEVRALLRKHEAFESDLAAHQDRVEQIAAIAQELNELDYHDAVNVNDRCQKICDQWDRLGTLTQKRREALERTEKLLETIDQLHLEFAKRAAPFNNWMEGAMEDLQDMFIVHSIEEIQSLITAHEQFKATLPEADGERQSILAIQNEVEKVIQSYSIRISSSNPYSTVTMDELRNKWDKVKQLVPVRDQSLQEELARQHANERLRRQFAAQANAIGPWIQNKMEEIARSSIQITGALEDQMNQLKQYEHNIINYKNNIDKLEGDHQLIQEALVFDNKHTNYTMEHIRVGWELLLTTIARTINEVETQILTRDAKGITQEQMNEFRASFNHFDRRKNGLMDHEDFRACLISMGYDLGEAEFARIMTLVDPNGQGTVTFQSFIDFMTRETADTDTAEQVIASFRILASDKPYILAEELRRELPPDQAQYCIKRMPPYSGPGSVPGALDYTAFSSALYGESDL

Target: LRRC10, endogenous in mouse heart (mouse (endogenous in heart)) (UniProt Q8K3W2)
Assay: co-IP; one-two month old mouse hearts homogenised in IP buffer (20 mM Tris HCl pH 8.0, 100 mM NaCl, 1 mM EDTA) with 1% triton X-100, 1 mM DTT, protease inhibitors; lysates incubated with preimmune serum or an LRRC10 antibody, Protein A agarose beads; immunoblot; Lrrc10-/- heart extracts as control

α-actinin, endogenous in mouse heart (from UniProt Q9JI91 1-894)
binding: binds
